From patent US20110207628A1 (UNIVERSITY OF MIAMI, published 2011)

Experiments:
[1] = molecular target: T1, tubby-N (N-terminus of mouse tubby, 1M-242P), GST-free (mouse, UniProt P50586 1-242); assay: clonal phage on immobilized tubby-N, plaque assay
T1 construct: range 1-242; Expressed as GST-tubby-N in E. coli BL21(DE3), GST removed by 3C protease cleavage; also called GST-free tubby-N
T1 sequence (looked up): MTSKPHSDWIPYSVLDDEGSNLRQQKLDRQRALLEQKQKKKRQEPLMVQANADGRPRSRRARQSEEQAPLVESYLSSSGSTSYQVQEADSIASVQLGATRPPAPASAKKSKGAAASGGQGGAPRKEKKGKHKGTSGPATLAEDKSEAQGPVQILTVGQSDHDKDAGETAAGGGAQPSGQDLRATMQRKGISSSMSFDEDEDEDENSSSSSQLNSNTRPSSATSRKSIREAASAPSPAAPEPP

[2] = molecular target: T2, FLAG-tubby-F (full-length mouse tubby with N-terminal FLAG tag) (mouse, UniProt P50586 1-505); assay: clonal phage on immobilized FLAG-tubby-F, plaque assay
T2 construct: mature; also called FLAG-tagged tubby; tubby-vesicles
T2 sequence: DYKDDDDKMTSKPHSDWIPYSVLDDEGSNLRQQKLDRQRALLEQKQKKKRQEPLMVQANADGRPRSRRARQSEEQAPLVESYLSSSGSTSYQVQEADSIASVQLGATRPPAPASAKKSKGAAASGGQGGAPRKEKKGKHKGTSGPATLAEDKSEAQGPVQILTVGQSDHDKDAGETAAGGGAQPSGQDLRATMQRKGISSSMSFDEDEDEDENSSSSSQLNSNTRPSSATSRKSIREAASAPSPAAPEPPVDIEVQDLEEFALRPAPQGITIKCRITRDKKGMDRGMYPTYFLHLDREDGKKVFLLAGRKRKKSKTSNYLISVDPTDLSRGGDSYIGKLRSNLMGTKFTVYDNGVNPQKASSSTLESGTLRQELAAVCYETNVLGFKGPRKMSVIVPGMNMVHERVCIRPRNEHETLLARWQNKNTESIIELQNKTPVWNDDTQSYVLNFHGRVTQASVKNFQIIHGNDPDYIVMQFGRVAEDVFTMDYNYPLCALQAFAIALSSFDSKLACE

B1: High mobility group nucleosomal binding domain 1 (Hmgn1) 1M-49K, phage clone (other, mouse, UniProt P18608 1-49, looked up)
chain: MPKRKVSADGAAKAEPKRRSARLSAKPAPAKVDAKPKKAAGKDKASDKK
notes: range 1-49; Minimal overlap of 2 independent clones; For Y2H recloned into pGAD424
Q: How did the “Binding to tubby-N (binding specificity of clonal phage vs. control phage)” value [1] turn out when B1 was run?
A: ~61.4 X (fold)

Q: What about the “Binding to tubby-F (binding specificity to FLAG-tubby-F vs. to GFP-FLAG)” value [2] of the same binder?
A: ~9.5 X (fold)
